Assay results: paper PMC7348141
No constants are given. Whether binding was seen depends on the method and setting. Binding seen in cells or lysates may run through a third protein. Some binding calls cover weakened binding; strength is not graded here.

The chains behind the UniProt entries cited, without tags or fusion partners.
UniProt P46937: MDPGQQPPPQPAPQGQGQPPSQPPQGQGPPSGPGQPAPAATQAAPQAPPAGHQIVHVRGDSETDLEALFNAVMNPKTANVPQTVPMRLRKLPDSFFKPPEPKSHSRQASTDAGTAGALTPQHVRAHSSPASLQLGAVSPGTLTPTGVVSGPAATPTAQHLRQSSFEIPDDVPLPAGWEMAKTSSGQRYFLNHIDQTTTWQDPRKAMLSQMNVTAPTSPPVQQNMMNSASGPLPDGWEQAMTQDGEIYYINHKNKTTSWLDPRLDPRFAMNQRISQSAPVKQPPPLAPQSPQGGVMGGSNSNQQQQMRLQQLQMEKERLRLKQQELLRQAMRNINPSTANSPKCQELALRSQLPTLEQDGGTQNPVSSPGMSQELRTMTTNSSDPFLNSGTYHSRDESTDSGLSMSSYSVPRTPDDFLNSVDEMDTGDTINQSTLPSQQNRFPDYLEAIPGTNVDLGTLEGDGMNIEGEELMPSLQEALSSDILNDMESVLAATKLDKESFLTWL
UniProt Q15796: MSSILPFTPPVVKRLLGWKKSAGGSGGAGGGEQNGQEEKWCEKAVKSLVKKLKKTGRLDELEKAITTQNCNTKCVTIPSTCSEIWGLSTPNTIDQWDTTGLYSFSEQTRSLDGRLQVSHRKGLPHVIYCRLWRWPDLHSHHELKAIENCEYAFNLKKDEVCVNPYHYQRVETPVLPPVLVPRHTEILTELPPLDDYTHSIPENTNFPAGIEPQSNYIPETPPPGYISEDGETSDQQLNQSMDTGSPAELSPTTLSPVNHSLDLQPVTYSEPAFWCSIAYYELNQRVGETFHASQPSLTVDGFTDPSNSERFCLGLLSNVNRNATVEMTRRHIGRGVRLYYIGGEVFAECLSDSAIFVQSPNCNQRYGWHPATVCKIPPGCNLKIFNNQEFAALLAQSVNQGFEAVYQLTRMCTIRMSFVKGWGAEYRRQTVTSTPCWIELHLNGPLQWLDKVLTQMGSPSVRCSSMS

Target: Yes-associated protein (human (endogenous in HASMCs)) (UniProt P46937)
Assay: co-IP; whole cell lysates of HASMCs (Cell Lysis Buffer with protease inhibitor) incubated with YAP antibody or control IgG overnight at 4°C, protein A/G agarose; co-precipitated SMAD2 detected by Western blot; cells untreated, treated with thrombin (1 U/mL), or pre-treated with dabigatran before thrombin

SMAD2 (from UniProt Q15796 1-467)
binding: binds
